Reference: PubChem BioAssay AID602313 (National Center for Advancing Translational Sciences (NCATS), 2012)
The whole screen tested about 390,000 compounds, of which about 760 (0.19%) were called active. Inconclusive means that the source gave no clear call. Such entries were picked first, then a sample of the others. The call rests on the fitted dose curve; in most records, active means well fitted inhibition curve with a large enough effect; inconclusive means small, poorly fitted or top-dose-only effect; inactive means flat fitted curve, though single readings scatter. Potencies beside an inconclusive call are fits to weak or partial responses and may not hold up.

Test: qHTS for Inhibitors of Vif-A3F Interactions: qHTS; further: nearly all actives have a fitted effect of over 65% in size; on activity, negative = active: % of control where 0% means no effect
Details: HeLa A3F-eYFP + Vif (tagged APOBEC3F with the HIV-1 protein that degrades it), YFP fluorescence increase; series mostly up to 46.1 µM; activity, negative = active: at the top concentration
Summary of the method: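 HeLa cells stably expressing A3F-eYFP plus Vif, plated and incubated overnight at 37 deg C, then exposed to compounds overnight at 37 deg C. Blocked degradation read as raised yellow fluorescence (Ex 488/Em 500-530).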
Potency means the concentration at half of the fitted maximal effect.

Row | Compound | Potency | activity, negative = active
1 | COc1ccc2cc(C3=CC(=O)CCC3)ccc2c1 | inconclusive: 6.31 µM [inhibitor, single point] | –
2 | COc1ccc(/C=C/c2nc3ccccc3n2C)cc1 | – | inactive: -4.66%
3 | Nc1cccc(-c2nc3cc(S(=O)(=O)c4ccc5oc(-c6cccc(N)c6)nc5c4)ccc3o2)c1 | inconclusive: 11.2 µM [inhibitor, single point] | –
4 | COc1ccc2cc(C(=O)/C=C/c3cc(OC)c(O)c(OC)c3)ccc2c1 | inconclusive: 35.5 µM [inhibitor, single point] | –
5 | COc1ccc(N2C(=O)C3C(C2=O)C(C(=O)c2ccc(Cl)cc2)N2CCCC32)cc1 (centres undefined) | inconclusive: 11.2 µM [inhibitor, partial curve, poor fit] | –
6 | Nc1nc(-c2cc(O)ccc2[N+](=O)[O-])cc(-c2ccccc2)c1[N+](=O)[O-] | inconclusive: 35.5 µM [inhibitor, single point] | –
7 | COc1ccc2c(C(=O)CN3CCN(c4ccccc4)CC3)c[nH]c2c1 | inconclusive: 35.5 µM [inhibitor, single point] | –
8 | CCCN(CCC)CCCNC(=O)c1cc2c(=O)oc3ccc(C)cc3c2s1 | inconclusive: 25.1 µM [inhibitor, single point] | –
9 | COc1ccc2c(c1)CCC1C2=NN(/C(C)=C/C(C)=O)C1c1cccc(F)c1 (centres undefined) | inconclusive: 11.2 µM [inhibitor, partial curve] | –
10 | CCCn1c(C2CCCN2c2nc(-c3cccc(Br)c3)cs2)nc2ccccc21 (centres undefined) | active: 10 µM | –
11 | Cc1ccc2nc(/C(C#N)=C/c3cccc(Br)c3)[nH]c2c1 | inconclusive: 22.4 µM [inhibitor, single point] | –
12 | COc1ccc([C@H]2CC(=O)C=C(c3ccc(C)cc3)C2)cc1 | inconclusive: 31.6 µM [inhibitor, partial curve, poor fit] | –
13 | Cc1oc2cc(OC(C)C(=O)O)ccc2c(=O)c1Oc1ccccc1 (centres undefined) | inconclusive: 6.31 µM [inhibitor, single point] | –
14 | Cc1ccc(NC(=O)c2ccc(NC(=O)N3CCSc4ncccc43)cc2)c(Cl)c1 | – | inactive: -5.92%
15 | O=C1C(N2CCOCC2)=C(n2nnc3ccccc32)C(=O)c2ccccc21 | inconclusive: 14.1 µM [inhibitor, single point] | –
16 | O=C(CSc1ccc(Cl)cc1)Nc1ccc(N2CCN(C(=O)c3ccco3)CC2)cc1 | – | inactive: -9.97%
17 | COc1ccccc1N1C(=O)C2C3C=CC(CC3)C2C1=O (centres undefined) | – | inactive: 6.73%
18 | Cc1nnc(-c2ccc(Cl)cc2)nc1NCCN(C)C | – | inactive: -4.7%
19 | C/C(=N/NC(=O)c1ccncc1)c1ccccc1 | – | inactive: 8.37%

2 of the compounds above, in markdown.

| Row | Compound | Potency | activity, negative = active |
| --- | --- | --- | --- |
| 5 | COc1ccc(N2C(=O)C3C(C2=O)C(C(=O)c2ccc(Cl)cc2)N2CCCC32)cc1 (centres undefined) | inconclusive: 11.2 µM [inhibitor, partial curve, poor fit] | – |
| 6 | Nc1nc(-c2cc(O)ccc2[N+](=O)[O-])cc(-c2ccccc2)c1[N+](=O)[O-] | inconclusive: 35.5 µM [inhibitor, single point] | – |
